Experimental findings from publication PMC7819943, “Rice protein-binding microarrays: a tool to detect cis-acting elements near promoter regions in rice” are described below.

Some of the results follow.

The experiment addresses T1, OsSMF1 (Oryza sativa, UniProt Q6ZLB0 1-436).
T1 sequence: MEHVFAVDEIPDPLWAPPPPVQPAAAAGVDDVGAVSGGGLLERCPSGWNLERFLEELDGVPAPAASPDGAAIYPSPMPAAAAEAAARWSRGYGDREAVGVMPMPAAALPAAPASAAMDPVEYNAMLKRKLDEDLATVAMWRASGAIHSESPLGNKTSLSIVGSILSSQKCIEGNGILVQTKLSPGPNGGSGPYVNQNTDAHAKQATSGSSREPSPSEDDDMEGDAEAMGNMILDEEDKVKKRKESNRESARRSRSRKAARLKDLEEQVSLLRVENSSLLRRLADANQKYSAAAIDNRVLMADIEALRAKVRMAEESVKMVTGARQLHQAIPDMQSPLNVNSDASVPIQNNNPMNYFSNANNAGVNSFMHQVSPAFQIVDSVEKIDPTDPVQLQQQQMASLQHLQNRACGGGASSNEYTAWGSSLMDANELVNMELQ
The experiment is described as follows: protein-binding microarray (RPBM); PBS, 2% BSA, 51.3 ng/ul salmon testes DNA, 50 uM zinc acetate, 200 nM TF, 25 C, 1 h; high values mean tight binding. The settings on record: protein: recombinant; tags: N-terminal polyhistidine and DsRed monomer fusion (pET32a); chain copies: 2; label: CyDye5-dUTP incorporated in the synthesized complementary strand; 3' TTTTT single-stranded linker to array surface; dsDNA, one strand shown. A digest of the protocol:
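Transcription factors, each fused N-terminally to a polyhistidine tag and DsRed, were expressed in E. coli BL21-CodonPlus and purified on Ni–NTA. A custom Agilent array was made double-stranded by primer extension with Cy5-dUTP and blocked with 2% BSA. It was incubated with 200 nM protein in PBS, 2% BSA, salmon testes DNA and 50 µM zinc acetate at 25 °C for 1 h, then washed. The binding signal is per-feature fluorescence intensity (arbitrary units) read on an Axon 4000B scanner.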
With “AGCAATCCAGGAGGTATACGAACCAAATTCTCTCGTAATCCGGAGTCACCTAGTGCAG”, the binding signal was 18900 fluorescence intensity (a.u.). In the case of “CGAACCTGGACACGCATATGTTTAGGCTCATAGCTAGAATCGGAGTCACCTAGTGCAG” it was 3230 fluorescence intensity (a.u.); in that of “CCGGCGCCACCAGCTTCCCGCTCGTCATCAACAGCGCCGCCGGAGTCACCTAGTGCAG”, 4320 fluorescence intensity (a.u.); in that of “GGCGGCGACCTCGGGGTGCACCTCAAGCTCAAGCTCTCCTCGGAGTCACCTAGTGCAG”, 35200 fluorescence intensity (a.u.). Turning to “TCTCAGTGCCGGTGTGGGATCGTGGTTGTGTGTGTGATTGCGGAGTCACCTAGTGCAG”, the binding signal was 3740 fluorescence intensity (a.u.). In the case of “CACTGCAAGCGAGGAAAATTTCCACAGATCACCAGTGAATCGGAGTCACCTAGTGCAG” it was 4530 fluorescence intensity (a.u.); in that of “GCGCCGTCGCCCGCGACGTGCTGGTCCCGTCATCAGCGCGCGGAGTCACCTAGTGCAG”, 4010 fluorescence intensity (a.u.). As for “ACCTGTTGTACTTAGTTACGGCGACACGTTTGCATCAGGCCGGAGTCACCTAGTGCAG”, the figure is 6860 fluorescence intensity (a.u.). On to “AGCTCTCTCTCTCTCGGCTCGGCTCAGCTCGGCGCGTGCACGGAGTCACCTAGTGCAG”, for which the binding signal is 3850 fluorescence intensity (a.u.).

For “TGAGTCGGTATTAGAGGGAGAGCTGACCTGCATTAAGTTTCGGAGTCACCTAGTGCAG”, the binding signal was 3480 fluorescence intensity (a.u.). In the case of “TTTAATTGTTCTGCGATTACGGTAGAAATAGATCGGGCTTCGGAGTCACCTAGTGCAG” it was 3210 fluorescence intensity (a.u.); in that of “ATGAGCCCATCCGTCACTGCCACGGTTCCATCAACATCTACGGAGTCACCTAGTGCAG”, 3590 fluorescence intensity (a.u.); in that of “GTATGGGTTCGAGGAGTGATGTGGTGATGGGCAAACCCATCGGAGTCACCTAGTGCAG”, 3300 fluorescence intensity (a.u.). As for “GTCAAGGAGTTCAAGGGAGGAAGAGGACAACCCACTCCAACGGAGTCACCTAGTGCAG”, the figure is 3330 fluorescence intensity (a.u.); as for “CACCGGATAGAGAGAGAGAGGAGTCAGCGCACGCGCCGAGCGGAGTCACCTAGTGCAG”, 4020 fluorescence intensity (a.u.); as for “ACTGCATCGTTTTGTTAAAACTAGTATCCAAGTGTCATTGCGGAGTCACCTAGTGCAG”, 3220 fluorescence intensity (a.u.). “CCTCTTCCTCCTCCTCCTCCTCCCCAAAGGTGCAATGCCCCGGAGTCACCTAGTGCAG”: the binding signal is 18000 fluorescence intensity (a.u.).

Take “CCTACCCACCAGTAATAAAGCACCACGTGTCGCGAGGGTACGGAGTCACCTAGTGCAG”: the binding signal is 9700 fluorescence intensity (a.u.). In the case of “GTCGGTGATAACAACATCCACATCATCGTTGTATTACGTGCGGAGTCACCTAGTGCAG” it was 11700 fluorescence intensity (a.u.); in that of “AACTTTGCTTTGCAAAACATGTCATCATAAACTACTTCGCCGGAGTCACCTAGTGCAG”, 5310 fluorescence intensity (a.u.). In the case of “CGCTGCAAATCCCAATCGGCTCTCACACCGACACGTGGGCCGGAGTCACCTAGTGCAG” it was 9110 fluorescence intensity (a.u.). In the case of “GCCGATTGCCACTCTGTTCTTAGCGTTTCTTGCGTTAGATCGGAGTCACCTAGTGCAG”, the binding signal is 3560 fluorescence intensity (a.u.). In the case of “GTGGTTAACGAAGACGATGACGTGGAGTTGCAGGCGTTCACGGAGTCACCTAGTGCAG” it was 14400 fluorescence intensity (a.u.). In the case of “GGCGGCCGGCGGCAGTGGCGCAGAGGCGTCCGGCGGCGGCCGGAGTCACCTAGTGCAG” it was 14900 fluorescence intensity (a.u.); in that of “TTCATGGTTACCGCGGTTAACACGTGGTAACCGTACTTACCGGAGTCACCTAGTGCAG”, 3550 fluorescence intensity (a.u.). As for “TTGCAGGTTTGCAGCTACAGTAGTAGCAGACTGCCATTTTCGGAGTCACCTAGTGCAG”, the figure is 3470 fluorescence intensity (a.u.); as for “TCTGCGCCGCATGCCGCCACGCGCGCGACACACGCTCGCTCGGAGTCACCTAGTGCAG”, 4540 fluorescence intensity (a.u.); as for “GGCGTTGGGCCGGGCGCAACGGCGGGAGAGTCGACGCCGCCGGAGTCACCTAGTGCAG”, 19500 fluorescence intensity (a.u.). In the case of “CCGCTCGCCGTGCCGCGACCACGTGTGGCGCCCGCTGCCTCGGAGTCACCTAGTGCAG”, the binding signal is 5580 fluorescence intensity (a.u.). “GAATCTCAGCCGCGTCATCCACCTCATTGCTCTTATCCGACGGAGTCACCTAGTGCAG”: the binding signal was 16800 fluorescence intensity (a.u.). As for “GGTCTGCCGTTCTTTAGTCTGACTCGAATAGACAGGCTCGCGGAGTCACCTAGTGCAG”, the figure is 3260 fluorescence intensity (a.u.); as for “GAGTCTTGAGAACCTTGACGTCTCGAGCTCGAGCCGTACTCGGAGTCACCTAGTGCAG”, 3560 fluorescence intensity (a.u.); as for “TAAACCACAGCGTCCTGGAATTGTGAGTCATGCGTGATGCCGGAGTCACCTAGTGCAG”, 8290 fluorescence intensity (a.u.). Regarding “AACATCATAACAAATACTATTGAAGGGGTGGCCCAACTACCGGAGTCACCTAGTGCAG”, the binding signal was 22600 fluorescence intensity (a.u.). In the case of “GCTTTCCTCTTGCTACACTCCTTTTCTCCAAGTCATACACCGGAGTCACCTAGTGCAG” it was 4100 fluorescence intensity (a.u.).

Regarding “TAGGGTTCGGGTTCTCTCTAGGATCACCTAGATTTAGATCCGGAGTCACCTAGTGCAG”, the binding signal is 29500 fluorescence intensity (a.u.).

With “TTGTAGAACGTGACAAAGTCAGTGGCAAATCGTAGACGTGCGGAGTCACCTAGTGCAG”, the binding signal was 3180 fluorescence intensity (a.u.). As for “TTCTCTTCTCATCTGCTTGCAGCAGCGGTAGACAGTGCATCGGAGTCACCTAGTGCAG”, the figure is 28500 fluorescence intensity (a.u.); as for “CACCACCAACACCACCCGACCCAATCACAAACTGTGTGTTCGGAGTCACCTAGTGCAG”, 4740 fluorescence intensity (a.u.). In the case of “TTACATACGGATTATGTAATTTGTTTTGTTATTAATCTACCGGAGTCACCTAGTGCAG” it was 3160 fluorescence intensity (a.u.). In the case of “ACTCCTCCGCTCGCTTTGCGCCATCGCCGCCACCGACGCCCGGAGTCACCTAGTGCAG” it was 3950 fluorescence intensity (a.u.). For “AGCATTTCTTCTCTTTGCAACTGATGCTGAACCACACCACCGGAGTCACCTAGTGCAG”, the binding signal is 3230 fluorescence intensity (a.u.).

Consider “CCTGCCTGTCACGCTACGATATTTAACGTGGCTGTTGGCCCGGAGTCACCTAGTGCAG”, for which the binding signal is 5510 fluorescence intensity (a.u.). In the case of “GTCTTCTCGTGTACACGCCGTACATATCAACTAGCAAATTCGGAGTCACCTAGTGCAG” it was 3410 fluorescence intensity (a.u.); in that of “AGTGGTGGGAGAACCTAGCAAACACGTCCGCTGTCCCAGACGGAGTCACCTAGTGCAG”, 4860 fluorescence intensity (a.u.). As for “GCGATGATTGGCTTGCACTCTGCCACGTAGGATCCGCTCCCGGAGTCACCTAGTGCAG”, the figure is 35700 fluorescence intensity (a.u.); as for “ACCCTTCCGCGAACCGCGGCGGTGAGAGAGGAAGACGTGGCGGAGTCACCTAGTGCAG”, 5450 fluorescence intensity (a.u.). As for “GACGACCTTGGCACCCAGCTTCCGTCACTCGCTCGCCGCGCGGAGTCACCTAGTGCAG”, the figure is 3220 fluorescence intensity (a.u.). Turning to “TGCGTGTATAACAGGTGGGACCAAGTATTAATAGTATAGTCGGAGTCACCTAGTGCAG”, the binding signal was 25900 fluorescence intensity (a.u.).

On to “GCTCTCACTAGGGCCGACGTGGCCGGCGCCAGGCTTCGTCCGGAGTCACCTAGTGCAG”, for which the binding signal was 9140 fluorescence intensity (a.u.). As for “AGCTGCGACTGACCTGGACATGTATTCAACATTCGATCCACGGAGTCACCTAGTGCAG”, the figure is 3560 fluorescence intensity (a.u.); as for “CGCGTTCGTCGTGCTGTCGTGCGTCACCGCCGGCATGGGCCGGAGTCACCTAGTGCAG”, 10800 fluorescence intensity (a.u.). In the case of “GATATTTCTCTTTATCATGGTCACCGTTCATCATGAGCAACGGAGTCACCTAGTGCAG” it was 25000 fluorescence intensity (a.u.).

For the sequence “CCTTCCGTTCAGGATTGTTCATGGCCACGCAGCCGAAGATCGGAGTCACCTAGTGCAG”, the binding signal is 3210 fluorescence intensity (a.u.).
